Reference: patent publication US20100317827 (published 2010)

Assay: peptide synthesis
Settings: whole synthesis, HPLC, TFA salt (eptifibatide)

atosiban
crude purity (method not given): 73.5%
